Record: PubChem BioAssay AID686943 (Drosophila RNAi Screening Center, 2013)

- Assay: 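Fly genes whose loss alters ERK activation after insulin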 (primary screen)
- Cell system: Drosophila S2R+ haemocyte-like cells expressing YFP-tagged ERK (Rolled)
- Reagents: long dsRNA against Drosophila genes
- Treatment: insulin stimulation versus unstimulated cells; dose and duration not given
- Read-out: 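Antibody staining for doubly phosphorylated ERK divided by ERK-YFP signal, as plate z-scores, in insulin-treated and untreated cells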
- Reading the numbers: replicate 1, z-score of dpERK with insulin and replicate 2, z-score of dpERK with insulin: higher = more active ERK per ERK-YFP after insulin
The deposit covers about 23,000 reagents; below is an unselected part of those that have a named target and a result. 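Extra replicates exist only for a retested subset of genes; insulin dose and duration not given; both raised and lowered dpERK matter.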 Reagents against one gene are numbered here. Names joined by + are all predicted targets of the reagent. Not all columns of the deposit are shown. The record does not give: the amount of reagent, the time to read-out.

no.	gene	reagent	replicate 1, z-score of dpERK with insulin	replicate 2, z-score of dpERK with insulin
1	tplus3a + tplus3b	1	-1.98	-1.63
2	dpr3	1	0.63	0.1
3	dpr3	2	-0.26	-1.96
4	dpr3	3	-2.07	-2.95
5	CR42546	1	-0.23	0.2
6	CG34164	1	-0.04	0.01
7	Pcif1	1	0.92	-0.05
8	CG15362	1	-0.55	-0.22
9	tst	1	-0.28	-0.68
10	Actn3	1	0.27	0.89
11	CG34175	1	-1.52	-2.64
12	alc	1	0.61	0.16
13	alc	2	-0.57	-0.97
14	Srr	1	1.21	0.28
15	SMC2	1	-0.04	-0.13
16	CG18234	1	0.08	-0.03
17	CG15725	1	-0.23	-0.11
18	Cyp4e1	1	-0.25	0.44
19	CG7430	1	1.01	1.51
20	CG10031	1	-0.85	0.09
21	lncRNA:CR32658	1	-0.02	0.53
22	CG1542	1	-0.06	-1.17
23	Rab9Fb	1	-0.18	-0.63
24	mGluR	1	-0.01	-0.75
25	Best2	1	0.15	0.33
26	Rbfox1	1	0.21	0.12
27	Rbfox1	2	-4.6	-0.1
28	Rbfox1	3	-0.65	-2.05
29	Rbfox1	4	0.38	-0.06
30	ps	1	-0.46	-1.51
31	ps	2	-3.21	-2.43
32	ps	3	-1.57	-1.66
33	ps	4	-1.51	-1.77
34	CG44838	1	-2.76	-4.71
35	CG44838	2	0.41	0
36	CG30394	1	1.53	0.67
37	CG30394	2	0.98	0.91
38	CG32299 + CG32298	1	0.25	0.13
39	CG32299 + CG32298	2	-0.04	-0.12
40	Su(var)2-10	1	-0.6	-1.06
41	CG4576	1	-0.37	0.24
42	CG6337	1	1.35	-0.26
43	CG6337	2	0.1	0.31
44	CG30187	1	0.15	0.58
45	CG11398	1	0.48	-0.37
46	Spn28F	1	0.22	-0.44
47	RhoU	1	0.81	0.19
48	RhoU	2	-0.4	-0.29
49	RhoU	3	0.79	0.49
50	RhoU	4	-0.4	0.14
51	RhoU	5	0.38	0.36
52	CG30053	1	0.22	0.36
53	lncRNA:CR32553	1	0.08	0.09
54	CG6276	1	0.59	0.4
55	subdued	1	0.42	-0.07
56	CG14464	1	-0.87	-1.22
57	CG7966	1	-0.46	-0.13
